Experimental data reported in PubChem BioAssay AID777 (Sanford-Burnham Center for Chemical Genomics, 2007).
The list shows a part of the results, in another mix than the full data. The source made the active and inactive calls.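 Rule for the calls: active = blocking of liver enzyme CYP2C9 beyond about 50% at 5 µM (limit read from the data); inactive = the rest.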

Chains of the proteins cited; added tags and fusions are not shown.
UniProt P11712, whole entry, looked up: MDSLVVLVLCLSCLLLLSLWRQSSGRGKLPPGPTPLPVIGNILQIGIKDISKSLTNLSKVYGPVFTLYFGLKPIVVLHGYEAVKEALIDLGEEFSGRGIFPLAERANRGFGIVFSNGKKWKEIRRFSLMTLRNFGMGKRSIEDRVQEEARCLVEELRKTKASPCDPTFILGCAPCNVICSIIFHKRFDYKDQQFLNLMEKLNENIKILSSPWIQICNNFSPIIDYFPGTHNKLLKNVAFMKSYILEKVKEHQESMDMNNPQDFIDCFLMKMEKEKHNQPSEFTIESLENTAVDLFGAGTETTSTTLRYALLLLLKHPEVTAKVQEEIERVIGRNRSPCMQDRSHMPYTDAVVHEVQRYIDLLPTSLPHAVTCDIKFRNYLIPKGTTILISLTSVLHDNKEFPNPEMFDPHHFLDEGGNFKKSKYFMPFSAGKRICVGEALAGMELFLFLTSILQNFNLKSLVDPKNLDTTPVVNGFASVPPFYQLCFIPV

The compounds below were run against Cytochrome P450 2C9 (Homo sapiens) (UniProt P11712) (assay: blockers of cytochrome P450 2C9 activity – biochemical, luminescence, ADME assay, primary screen (AID 777)). Conditions: CYP2C9 Supersomes, luciferin-H conversion, at 5 µM, active compounds read high.

Structure (SMILES)	inhibition
COC(=O)C1=C(C(=O)OC)C(c2cc(Cl)ccc2O)c2sc(=O)[nH]c2S1 (stereo unspecified)	active: 81.3%
